Measured values reported in PubChem BioAssay AID493014 (National Center for Advancing Translational Sciences (NCATS), 2011).
The other results are listed elsewhere or left out. The main result of the screen is listed elsewhere. These columns were measured beside it and carry no call. The list favours compounds with an active or inconclusive main result. Potencies come from curve fits of mixed quality, noted in brackets.

Experiment: qHTS Assay to Find Inhibitors of Chronic Active B-Cell Receptor Signaling
Conditions: ABC-DLBCL IkBa-CBG/CBR reporter, luminescence ratio (green luciferase fused to IkBa over red control in TMD8 lymphoma cells), 4 h
Outline: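 TMD8 ABC-DLBCL cells carrying doxycycline-inducible green luciferase fused to IkappaBalpha plus unfused red luciferase were exposed to compounds (up to 46 uM) for 4 hrs at 37C. Activity came from the overlap-corrected green/red luminescence ratio.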

[1] = measured here: CBR red luminescence, cell number
[2] = measured here: IkBa-CBG green luminescence

Row | SMILES | AC50 [1] | AC50 [2]
1 | COc1ccccc1NC(=O)N1CCc2c([nH]c3ccccc23)C1C(F)(F)F (stereo not drawn) | 4.47 µM [falling, partial curve] | 
2 | O=C(Cn1cc(C(F)(F)F)ccc1=O)Nc1ccccc1 | 35.5 µM [falling, single point] | 
3 | O=C(Cc1cccs1)N1CCN(C(=O)C2CCCO2)CC1 (stereo not drawn) | 23.1 µM [rising, single point] | 
4 | CC1=C(Nc2ccc(C(=O)O)cc2)C(=O)c2ccccc2C1=O | 7.94 µM [falling, partial curve, poor fit] | 
5 | CCc1ccc(NC2=NC(C(=O)NC3CCCCC3)CC(=O)N2)cc1 (stereo not drawn) | 29.1 µM [rising, single point] | 
6 | O=C(CN1CCN(S(=O)(=O)c2ccc(F)cc2)CC1)Nc1ccccc1C(=O)NC1CC1 | 0.291 µM [rising, full curve, poor fit] | 
7 | CS/C(N)=N/N=C/c1cc(C)ccc1O | 11.2 µM [falling, partial curve] | 35.5 µM [falling, single point]
8 | NC(=O)C1(c2ccccc2)CCC(=O)N1c1ccccc1 (stereo not drawn) | 5.01 µM [rising, single point] | 
9 | O=C(c1ncc[nH]1)c1ccccc1Cl | 35.5 µM [rising, single point] | 
10 | CCCOc1ccc2c3c(c(=O)oc2c1)CCCC3 | 29.1 µM [rising, single point] | 
11 | CC(C)COc1ccc2[nH]c3c(c2c1)CCCC3=O | 4.11 µM [rising, partial curve] | 
12 | COc1cccc(C(=O)Nc2ccc(F)c(F)c2F)c1 | 10 µM [falling, partial curve] | 
13 | COC(=O)CC(c1ccc(F)cc1)n1c(C)ccc1C (stereo not drawn) | 12.6 µM [falling, single point] | 
14 | Fc1ccc(OCc2nnc(SCCN3CCOCC3)o2)cc1 | 4.11 µM [rising, full curve] | 
15 | O=C(N/N=C/c1c(O)ccc2ccccc12)c1cccc(C(F)(F)F)c1 | 23.1 µM [falling, partial curve, poor fit] | 
16 | Cc1ccccc1C(=O)Nc1ccc(Cl)cn1 | 7.94 µM [falling, partial curve, poor fit] | 
17 | O=C(COc1ccccc1Cl)Nc1ccc(N2CCN(C(=O)c3ccccc3)CC2)cc1 | 14.1 µM [falling, single point] | 
18 | Cc1ccc(CNC(=O)Cn2c([N+](=O)[O-])cnc2C)cc1 | 23.1 µM [rising, single point] | 
19 | Cc1ccc(/C=[N+](/[O-])C2SC(=S)N(C)C2(C)C)cc1 (stereo not drawn) | 29.1 µM [rising, single point] | 
20 | COc1cccc(C(=O)NCC(C)(C)SCc2ccc(F)cc2)c1 | 35.5 µM [falling, single point] | 
21 | Cc1ccc(OCCCCc2c(C)n[nH]c2C)cc1 | 7.94 µM [rising, partial curve] | 
22 | COC(=O)c1cccc(NC(=O)Nc2ccc(Cl)cc2)c1 | 35.5 µM [falling, single point] | 

Row | SMILES | AC50 [1] | AC50 [2]
23 | COc1cccc(NC(=O)CC2(CC(=O)O)CCCC2)c1 | 20.6 µM [rising, single point] | 
24 | c1ccc(-c2nc(CSc3n[nH]c(-c4cccs4)n3)cs2)cc1 | 5.01 µM [falling, partial curve, poor fit] | 
25 | CC(=O)Nc1cccc(C(=O)N/N=C/c2c[nH]c3ccccc23)c1 | 22.4 µM [falling, partial curve, poor fit] | 
26 | CCOc1cc(/C=C2\COc3ccccc3C2=O)ccc1OCC(=O)N(C)C | 2.51 µM [falling, full curve] | 
27 | COc1ccc(CN2CCN(S(=O)(=O)c3ccccc3)CC2)c(OC)c1 | 3.26 µM [rising, single point] | 
28 | O=C(Nc1ccc(-c2csc(Nc3ccc(Cl)cc3)n2)cc1)c1ccccc1 | 10.3 µM [falling, partial curve] | 
29 | Cc1ccc(CSc2nnc3[nH]c(=O)cc(C)n23)cc1 | 1.41 µM [rising, full curve, poor fit] | 
30 | CCc1cc(C(=O)N2CCCC(CCC(=O)N3CCN(c4ccccn4)CC3)C2)no1 (stereo not drawn) | 10 µM [rising, partial curve, poor fit] | 
31 | O=C(Nc1nnc(-c2ccc(F)cc2)s1)c1c(F)cccc1Cl | 2.82 µM [falling, full curve, poor fit] | 
32 | COc1cc2cc(CN(CCO)C(=O)c3cccs3)c(=O)[nH]c2cc1OC | 29.1 µM [rising, single point] | 
33 | C=C(C)C(=O)O[C@H]1C/C(C)=C\C(=O)/C=C(\C)[C@H](O)[C@@H]2OC(=O)C(=C)[C@@H]21 | 7.08 µM [falling, full curve] | 
34 | CC(C)(C)c1ccc(COC(=O)Nc2ccc(F)cc2)cc1 | 29.1 µM [falling, single point] | 
35 | Oc1c(Br)cc(C=Nc2ccc3nc(-c4ccccc4)[nH]c3c2)c(O)c1Br | 22.4 µM [falling, partial curve, poor fit] | 
36 | Cc1ccc(C(=O)NC2(O)C(=O)c3ccccc3C2=O)cc1C | 25.1 µM [rising, single point] | 
37 | Nc1nnnn1/N=C/c1ccccn1 | 0.461 µM [falling, full curve, poor fit] | 
38 | Cn1nc(C(=O)Nc2ccc(-n3cnnn3)cc2)c2ccccc2c1=O | 5.8 µM [rising, partial curve, poor fit] | 
39 | Cc1ccc(CNC(=O)C2CCCN(Cc3cnn(-c4ccccc4)c3-n3cccc3)C2)cc1 (stereo not drawn) | 3.98 µM [rising, partial curve, poor fit] | 
40 | CC(=O)c1ccc(OCCCC(=O)NNC(=O)c2ccccn2)cc1 | 25.9 µM [rising, single point] | 
41 | O=C(Nc1cccc(-c2cn3c(n2)SCC3)c1)c1ccc2c(c1)OCO2 | 10 µM [falling, partial curve] | 
42 | Nc1cc(=O)[nH]c(SCCSc2ccccc2F)n1 | 5.62 µM [rising, single point] | 
43 | C/C(CC(=O)Nc1ccc(N(C)C)cc1)=N\NC(=O)c1ccccc1F | 15.8 µM [falling, partial curve, poor fit] | 
44 | O=C(Cn1ncn2c(cc3ccccc32)c1=O)NCCCc1ccccc1 | 1 µM [rising, full curve, poor fit] | 

Copied from the list:
Value for Nc1nnnn1/N=C/c1ccccn1 under AC50 [1]: 0.461 µM [falling, full curve, poor fit]
Value for CCc1cc(C(=O)N2CCCC(CCC(=O)N3CCN(c4ccccn4)CC3)C2)no1 (stereo not drawn) under AC50 [1]: 10 µM [rising, partial curve, poor fit]
Value for O=C(Nc1nnc(-c2ccc(F)cc2)s1)c1c(F)cccc1Cl under AC50 [1]: 2.82 µM [falling, full curve, poor fit]
Value for Cc1ccc(CSc2nnc3[nH]c(=O)cc(C)n23)cc1 under AC50 [1]: 1.41 µM [rising, full curve, poor fit]

Continued:

Row | SMILES | AC50 [1] | AC50 [2]
45 | O=C(CSc1nc2ccccc2o1)NCC1CCCO1 (stereo not drawn) | 3.26 µM [rising, full curve, poor fit] | 
46 | CC1CCN(C2=NC(=O)/C(=C/c3cn[nH]c3-c3ccccc3)S2)CC1 | 2.91 µM [falling, full curve] | 
47 | Cc1ccc(NC(=O)C(=O)NN=C2CCCC2)cc1C | 11.2 µM [falling, single point] | 
48 | COc1ccc2c(c1)CC/C2=N\OC(=O)c1ccccc1OC | 35.5 µM [falling, single point] | 
49 | Cc1ccccc1OCC(=O)Nc1ccc(Cc2ccncc2)cc1 | 20.6 µM [falling, partial curve] | 
50 | O=C(O)COc1ccccc1/C=C1\SC(=S)N(c2cccnc2)C1=O | 3.98 µM [falling, full curve, poor fit] | 
51 | O=C(NNC(=O)c1cc2ccccc2o1)c1ccc(F)cc1 | 18.4 µM [falling, partial curve] | 
52 | O=C(/C=C/Nc1ccccc1C(F)(F)F)c1ccco1 | 4.47 µM [rising, single point] | 
53 | CCn1c(SCC(=O)NCc2ccco2)nc2c(c1=O)SC(C)C2 (stereo not drawn) | 32.6 µM [falling, single point] | 
54 | COc1ccccc1CN1CC(C(=O)NCCn2nc(C)cc2C)CCC1=O (stereo not drawn) | 35.5 µM [rising, single point] | 28.2 µM [falling, single point]
55 | Cn1c(C(=O)N2CCN(C(=O)c3ccco3)CC2)cc2c(=O)n3ccccc3nc21 | 6.51 µM [rising, single point] | 
56 | Cc1occc1C(=O)N/N=C/c1cccnc1 | 11.2 µM [falling, partial curve] | 
57 | O=C(Nc1cccc(C(F)(F)F)c1)N1CCN(C(=O)Nc2cccc(C(F)(F)F)c2)CC1 | 29.1 µM [rising, single point] | 
58 | CCOC(=O)[C@H]1[C@H]2COc3ccc(Cl)cc3[C@@H]2N2C(=O)CN(Cc3ccc(F)cc3)C(=O)[C@@]12C | 2.59 µM [rising, partial curve, poor fit] | 
59 | CC(=O)c1c(C)n(C)c2ccc(OC(=O)c3ccco3)cc12 | 2.91 µM [rising, full curve, poor fit] | 
60 | CCCCN(C(=O)C1=CC=CN2CCS(=O)(=O)N=C12)c1ccccc1 | 0.82 µM [falling, full curve, poor fit] | 
61 | Clc1ccc(OCc2nc(-c3ccc(Br)o3)no2)cc1 | 2.31 µM [rising, partial curve] | 
62 | CCOc1ccc(C(=O)Nc2cc(C)ccn2)cc1 | 10 µM [falling, partial curve] | 
63 | CC(=O)N1c2ccc(S(=O)(=O)N3CCC(C(=O)NCc4ccccc4)CC3)cc2CC1C (stereo not drawn) | 6.31 µM [rising, full curve, poor fit] | 
64 | O=C(COc1ccccc1)NCC(=O)N/N=C/c1cccs1 | 10 µM [rising, partial curve] | 
65 | Cc1ccc(NC(=O)Cc2noc3ccccc23)c(C)c1 | 29.1 µM [rising, single point] | 
66 | COc1cccc(NC(=O)COC(=O)/C=C/c2c(C)nn(-c3ccccc3)c2C)c1 |  | 23.1 µM [rising, partial curve, poor fit]

Two records picked at random from those above, as already listed:
Row | SMILES | AC50 [1] | AC50 [2]
28 | O=C(Nc1ccc(-c2csc(Nc3ccc(Cl)cc3)n2)cc1)c1ccccc1 | 10.3 µM [falling, partial curve] | 
9 | O=C(c1ncc[nH]1)c1ccccc1Cl | 35.5 µM [rising, single point] | 
